# Values joined by “and” are separate entries in the source; they are usually repeats but may differ in a detail not shown here. Equal entries are not always repeated. Among all 580,000 compounds or so, about 6,100 (1.1%) were called active. Inconclusive means that the source gave no clear call. Such entries were picked first, then a sample of the others. Calls come from the whole dose curve; as a rule, active = well fitted inhibition curve with a large enough effect; inconclusive = small, poorly fitted or top-dose-only effect, or another doubt; inactive = no such curve, though single readings can be large or run the other way. A potency beside an inconclusive call is a rough fit, not a confirmed value.
# Sequences of proteins named here, by UniProt entry; tags and fusion partners are left off. A change or cut given only in a name is not applied to a line headed by its entry.
# UniProt P18054: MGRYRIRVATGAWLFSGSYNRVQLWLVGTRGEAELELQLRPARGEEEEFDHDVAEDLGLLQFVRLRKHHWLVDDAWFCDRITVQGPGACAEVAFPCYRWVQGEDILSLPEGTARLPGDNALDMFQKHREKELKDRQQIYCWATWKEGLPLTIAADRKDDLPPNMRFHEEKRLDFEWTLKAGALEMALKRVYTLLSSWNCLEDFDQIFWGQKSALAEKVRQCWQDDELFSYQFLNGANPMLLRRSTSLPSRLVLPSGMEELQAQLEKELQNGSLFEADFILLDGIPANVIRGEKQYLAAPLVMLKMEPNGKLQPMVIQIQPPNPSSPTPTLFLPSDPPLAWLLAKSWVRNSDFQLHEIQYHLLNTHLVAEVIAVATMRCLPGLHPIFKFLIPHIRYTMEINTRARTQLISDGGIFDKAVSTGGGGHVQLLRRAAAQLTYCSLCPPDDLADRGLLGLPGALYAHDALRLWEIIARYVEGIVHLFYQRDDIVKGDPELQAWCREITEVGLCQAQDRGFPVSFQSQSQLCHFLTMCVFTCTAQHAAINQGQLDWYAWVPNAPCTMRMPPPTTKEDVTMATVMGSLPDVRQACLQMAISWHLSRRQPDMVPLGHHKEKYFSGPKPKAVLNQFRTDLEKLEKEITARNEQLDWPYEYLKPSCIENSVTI
# Molecular target: Polyunsaturated fatty acid lipoxygenase ALOX12 (Homo sapiens) (UniProt P18054)
# Test: Primary qHTS assay for inhibitors of human arachidonate 12S-lipoxygenase (ALOX12): Round 2
# Conditions: purified 12hLO, xylenol orange hydroperoxide absorbance; activity change, negative = inhibition: at 108 µM (top of the series) unless noted
# Outline: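 Purified human 12hLO at 150 nM in 25 mM Hepes, 0.01% Triton X-100, pH 7.0, preincubated 15 min at room temperature with compound. Reaction started with 40 uM arachidonic acid, 30 min at room temperature. Hydroperoxide measured by Fe-xylenol orange, 573/405 nm absorbance ratio.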
# % is set by controls: 0 for no effect and ±100 for the full control effect; potency is the fitted concentration of half-maximal effect.
Compound,Potency,"activity change, negative = inhibition"
COc1cccc(NC(=O)N2CCC(N(C)S(C)(=O)=O)CC2)c1,inactive,–
O=C(Cn1c(=O)oc2cc(S(=O)(=O)N3CCCC3)ccc21)N1CCCC1,"inconclusive: 126 µM [inhibitor, single point]",–
Cc1ccccc1-n1nc(C(=O)O)c(C)c(C#N)c1=O,"inconclusive: 17.8 µM [inhibitor, partial curve, poor fit]",–
Cc1oc2c(cc(NS(=O)(=O)c3ccc(Br)cc3)c3ccccc32)c1C(=O)OCc1ccccc1,–,inconclusive: -48.7% [inhibitor]
CCc1nc2c(OCc3ccc4c(c3)OCO4)cccn2c1N(C=O)Cc1ccccc1,"inconclusive: 89.1 µM [inhibitor, single point]",–
O=[N+]([O-])c1ccc(-c2cn(-c3ccc(Cl)cc3)c(=S)[nH]2)cc1,inactive,–
CN(C)c1ccc(C(=O)Nc2sc(Nc3ccccc3)nc2C(N)=O)cc1,"inconclusive: 89.1 µM [inhibitor, partial curve, poor fit]",–
CC(Sc1nnc(-c2ccco2)n1C)C(=O)Nc1nccs1 (configuration not stated),"inconclusive: 63.1 µM [inhibitor, partial curve, poor fit]",–
OC(COc1ccc(Cl)cc1)CN1CCN(c2ccccc2)CC1 (configuration not stated),"inconclusive: 39.8 µM [inhibitor, partial curve, poor fit]",–
Cc1nn(-c2ccc(Cl)cc2)c2[nH]c(CCl)cc(=O)c12,"inconclusive: 50.1 µM [inhibitor, partial curve, poor fit]",–
CC1(C)CN=C(SCc2ccc(C#N)cc2)NC1,"inconclusive: 56.2 µM [inhibitor, partial curve, poor fit]",–
C=CCSc1nc2c(c(=O)n(C)c(=O)n2C)n1Cc1cccc(C)c1,"inconclusive: 56.2 µM [inhibitor, partial curve, poor fit]",–
COC(=O)c1ccc(-n2c(C)cc(C(=O)CSc3ccc(NC(C)=O)cc3)c2C)cc1,inactive,–
CCCc1cc(=O)[nH]c(SCC(=O)Nc2sc3c(c2C#N)CCC(C)C3)n1 (configuration not stated),active: 39.8 µM,–
CC(=O)c1cccc(NC(=O)c2nccnc2C(=O)O)c1,"inconclusive: 2.51 µM [inhibitor, full curve, poor fit]",–
COc1cc2nc(Cl)nc(NCCO)c2cc1OC,"inconclusive: 89.1 µM [inhibitor, single point]",–
O=[N+]([O-])c1ccc2[nH]c3c(c2c1)CCC/C3=N\O,"inconclusive: 6.31 µM [inhibitor, full curve]",–
O=C(Nc1cccc(C(F)(F)F)c1)c1cc2c(=O)c3ccccc3oc2nc1C(F)(F)F,"inconclusive: 50.1 µM [inhibitor, partial curve, poor fit]",–
O=C(Nc1ccc2oc(C3CC3)nc2c1)c1ccc(=O)[nH]c1,inactive,–
Cc1cc(C)cc(NS(=O)(=O)c2cc3[nH]c(=O)c(=O)[nH]c3cc2C)c1,"inconclusive: 100 µM [inhibitor, partial curve, poor fit]",–
CCOc1ccccc1NC(=O)Cn1nc(-c2ccco2)ccc1=O,inactive,–
CC(=O)Oc1cc2c(cc1Cl)C(c1cccs1)CC1(CC(C)(C)NC(=S)N1)O2 (configuration not stated),active: 31.6 µM,–
COc1ccc2c(c1)C=C(CN1CCN(C3CCCC3)C(CCO)C1)CO2 (configuration not stated),"inconclusive: 50.1 µM [inhibitor, partial curve, poor fit]",–

Compound,Potency,"activity change, negative = inhibition"
CC(=O)Nc1ccc(S(=O)(=O)N2CCC(N3CCN(Cc4ccc(C)cc4)C(=O)C3=O)CC2)cc1,–,inconclusive: -45.1% [inhibitor]
O=C(Nc1ccc2c(c1)OCCO2)C1CN(S(=O)(=O)C2CC2)CC12CCCCC2 (configuration not stated),inactive,–
COC(=O)[C@@]1(Cc2ccc(OC)cc2)[C@H]2c3cc(C(=O)N4CCCC4)n(Cc4ccsc4Br)c3C[C@H]2CN1C(=O)c1ccccc1,"inconclusive: 2.51 µM [inhibitor, full curve, poor fit]",–
CCCC(=O)Oc1c(Sc2ccc(C)cc2)c(C)nn1-c1ccccc1,"inconclusive: 20 µM [inhibitor, partial curve, poor fit]",–
O=C(Nc1cc(Cl)cc(Cl)c1)c1ccc(F)c(S(=O)(=O)N2CCCC2)c1,"inconclusive: 112 µM [inhibitor, partial curve, poor fit]",–
CCC(C)C(=O)Nc1cc(OC)c(OC)cc1C(=O)O (configuration not stated),"inconclusive: 1.41 µM [inhibitor, full curve, poor fit]",–
Cc1cc(C)c(C(=O)/C=C/c2ccco2)cc1C,"inconclusive: 3.55 µM [inhibitor, full curve, poor fit]",–
NC(N)=Nc1cc2ccccc2c2ccccc12,"inconclusive: 10 µM [inhibitor, full curve, poor fit]",–
CCN(CC)S(=O)(=O)c1ccc(N2CCCC2)c(NC(=O)Cc2ccccc2C)c1,inactive,–
O=C(CN1C(=O)/C(=C\c2ccccc2Cl)Sc2ccccc21)NCCCN1CCOCC1,inactive,–
O=S(=O)(Nc1ccc2c(c1)OCCO2)c1ccc(F)c(F)c1,inactive,–
CC(=O)NCc1ccc(C(=O)COC(=O)COc2ccccc2)s1,inactive,–
CC1=C[C@@H](CNC(=O)CCC(=O)O)[C@H](C(C)C)C[C@H]1Cc1nc2c(C)cccc2[nH]1,"inconclusive: 7.94 µM [inhibitor, full curve, poor fit]",–
CC(=O)c1cccc(-n2nnnc2SCC(=O)Nc2ccccc2N2CCCCC2)c1,inactive,–
CCNC(=S)N/N=C/c1cc(C)ccc1C,active: 39.8 µM,–
COCc1c(C(=O)N/N=C(/C)c2ccc(OCc3ccccc3)cc2)nnn1-c1nonc1N,inactive,–
COc1cc(C2C3=C(CCCC3=O)OC3=C2C(=O)CCC3)ccc1OCc1ccc(C(=O)O)cc1,"inconclusive: 100 µM [inhibitor, partial curve, poor fit]",–
Cc1ccc(-c2ccc(N)cc2)cc1,"inconclusive: 7.94 µM [inhibitor, full curve, poor fit]",–
COc1ccc(CSc2nc(C)cc(=O)[nH]2)cc1,"inconclusive: 100 µM [inhibitor, single point]",–
CC(C)(C)N=C1NN=C(c2ccc(Cl)cc2)CS1,"inconclusive: 39.8 µM [inhibitor, partial curve, poor fit]",–
COc1ccccc1CNc1oc(-c2ccc(C)cc2)nc1C#N,inactive,–
O=C(CCl)NNC(=O)c1c(O)c2ccccc2[nH]c1=O,inactive,–
CC(=O)C1=C(C)NC(SCC(=O)Nc2nc3ccccc3s2)=C(C#N)C1c1ccc(Cl)cc1 (configuration not stated),"inconclusive: 63.1 µM [inhibitor, partial curve, poor fit]",–

# One compound at a time, from the list above:
# O=C(CN1C(=O)/C(=C\c2ccccc2Cl)Sc2ccccc21)NCCCN1CCOCC1 as listed: Potency: inactive
# COc1ccc(CSc2nc(C)cc(=O)[nH]2)cc1 as listed: Potency: inconclusive: 100 µM [inhibitor, single point]
# CCCC(=O)Oc1c(Sc2ccc(C)cc2)c(C)nn1-c1ccccc1 as listed: Potency: inconclusive: 20 µM [inhibitor, partial curve, poor fit]
# COCc1c(C(=O)N/N=C(/C)c2ccc(OCc3ccccc3)cc2)nnn1-c1nonc1N as listed: Potency: inactive

# Continuation:

Compound,Potency,"activity change, negative = inhibition"
O=C(OCC(=O)N1CCN(c2ccccc2)CC1)c1ccc2ccccc2n1,"inconclusive: 39.8 µM [inhibitor, partial curve, poor fit]",–
NC(=O)/C(=C/c1ccco1)C(N)=S,"inconclusive: 35.5 µM [inhibitor, partial curve, poor fit]",–
COc1ccc(N(CC(=O)Nc2cc(OC)c(OC)cc2C(=O)O)S(=O)(=O)c2c(C)noc2C)cc1,"inconclusive: 44.7 µM [inhibitor, partial curve, poor fit]",–
CCc1c(CN2CCN(c3ccc(F)cc3)CC2)csc1C,"active: 44.7 µM and inconclusive: 7.08 µM [inhibitor, full curve, poor fit]",–
COc1ccccc1-c1cc(C(F)(F)F)nc(S(=O)(=O)CCCC(=O)Nc2ccccc2F)n1,inactive,–
O=C(c1cccs1)N1CCCN(c2cc(-c3ccc(Cl)cc3)[nH]n2)CC1,inactive,–
O=c1c2ccccc2ncn1-c1ccc(Cl)cc1[N+](=O)[O-],inactive,–
Cn1cccc1Cc1nnc(SCC(=O)Nc2cccc(Cl)c2)n1-c1ccc(F)cc1,inactive,–
COc1ccccc1Oc1ncccc1CNC(=O)c1ccc(C)nc1,inactive,–
CN(C)c1ccc(CN2CCNc3cnc(-c4ccccc4)cc3C2)cc1,"inconclusive: 63.1 µM [inhibitor, partial curve]",–
COC(=O)c1ccccc1NC(=S)NC(NC(=O)c1ccco1)C(Cl)(Cl)Cl (configuration not stated),"inconclusive: 6.31 µM [inhibitor, full curve, poor fit]",–
Cc1ccc(S(=O)(=O)N(C)C)cc1NC(=S)N(CCC#N)Cc1cccnc1,inactive,–
COc1cccc2c(C)nc(Nc3nc(C)c(Cc4ccc(C)cc4)c(=O)[nH]3)nc12,"inconclusive: 5.62 µM [inhibitor, full curve, poor fit]",–
CCCCN1C(=O)C(O)=C(C(C)=O)C1c1ccc(OC)cc1OC (configuration not stated),active: 8.91 µM,–
Cc1nn(-c2nc3c(c(=O)[nH]c(=O)n3C)n2CCCc2ccccc2)c(C)c1C,inactive,–
CCOC(=O)c1c(NC(=O)Nc2ccc(F)cc2)sc2c1CCN(C)C2,"inconclusive: 112 µM [inhibitor, single point]",–
COC(=O)CCCCCCCCCC[N+]1(Cc2ccccc2)CCCCC1,"inconclusive: 44.7 µM [inhibitor, partial curve]",–
COc1cccc(N=Nc2c(N)[nH]n3c(=O)cc(-c4ccccc4)nc23)c1,inactive,–
O=C(COc1ccc(Cl)cc1)NCCc1csc(-c2ccc(C(F)(F)F)cc2)n1,"inconclusive: 50.1 µM [inhibitor, partial curve, poor fit]",–
O=C(O)c1cc([N+](=O)[O-])ccc1C(=O)Nc1cccc([N+](=O)[O-])c1,"inconclusive: 39.8 µM [inhibitor, single point]",–
O=C(Cn1c2[n+](c3ccc(C(F)(F)F)cc31)CCCCC2)Nc1ccccc1,"inconclusive: 44.7 µM [inhibitor, partial curve, poor fit]",–
